In paper PMC10520678 one finds binding data, which are given here for two substances.

The chains behind the UniProt entries cited, without tags or fusion partners. Where a name states a change or a piece, a line headed by the entry shows the natural chain unless it says otherwise. A line that says so, or that is headed by a name, gives the form on record, which may keep a tag or linker. Residues count along the entry.
WT Flag-CD47 (human) (Q08722, residues 19-323): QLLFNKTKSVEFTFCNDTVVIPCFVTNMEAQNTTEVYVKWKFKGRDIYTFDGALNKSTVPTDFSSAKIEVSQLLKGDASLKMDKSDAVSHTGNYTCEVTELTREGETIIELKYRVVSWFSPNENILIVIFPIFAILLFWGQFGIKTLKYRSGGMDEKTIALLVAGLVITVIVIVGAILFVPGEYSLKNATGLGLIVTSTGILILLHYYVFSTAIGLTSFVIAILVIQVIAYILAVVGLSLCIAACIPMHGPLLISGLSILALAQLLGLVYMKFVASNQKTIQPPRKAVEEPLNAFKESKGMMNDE
Flag-CD47 Y288F (human) (Q08722, form named): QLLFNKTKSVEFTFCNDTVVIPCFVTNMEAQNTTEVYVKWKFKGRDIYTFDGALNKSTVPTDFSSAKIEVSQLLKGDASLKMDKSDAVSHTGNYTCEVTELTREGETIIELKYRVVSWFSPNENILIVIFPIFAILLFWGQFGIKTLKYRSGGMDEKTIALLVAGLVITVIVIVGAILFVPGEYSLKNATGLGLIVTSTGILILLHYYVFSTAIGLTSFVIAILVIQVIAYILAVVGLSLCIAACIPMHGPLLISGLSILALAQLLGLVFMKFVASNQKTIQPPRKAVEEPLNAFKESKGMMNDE
UniProt P19474: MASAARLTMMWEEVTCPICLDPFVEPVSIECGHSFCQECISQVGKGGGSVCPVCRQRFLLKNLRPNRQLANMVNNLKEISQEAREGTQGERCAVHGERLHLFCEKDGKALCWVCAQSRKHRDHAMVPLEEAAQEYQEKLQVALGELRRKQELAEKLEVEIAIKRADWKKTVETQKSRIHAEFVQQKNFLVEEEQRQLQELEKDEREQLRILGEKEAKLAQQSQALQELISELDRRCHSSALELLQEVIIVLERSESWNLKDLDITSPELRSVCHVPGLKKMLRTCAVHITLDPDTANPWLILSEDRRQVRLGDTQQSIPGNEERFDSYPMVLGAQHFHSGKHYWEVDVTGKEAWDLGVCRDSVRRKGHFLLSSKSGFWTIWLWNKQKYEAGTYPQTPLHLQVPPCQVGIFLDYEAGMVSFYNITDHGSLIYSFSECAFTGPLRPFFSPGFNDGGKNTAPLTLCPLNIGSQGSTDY

For assay [1], the target named is CD47 (integrin-associated protein), endogenous in U251 cells (human (endogenous in U251)) (UniProt Q08722). As to the kind of experiment: co-IP; endogenous CD47 immunoprecipitated with an anti-CD47 antibody from U251 lysates, immunoblot for the partner; cells serum-starved and with or without EGF (100 ng/mL, 1 h), with EGFR inhibitors, or transfected with c-Src WT or c-Src CA (48 h). On the technique in general: Immunoblotting shows a protein as a band on a membrane.

For assay [2], the target named is Flag-CD47 Y288F (human) (human) (UniProt Q08722). As to the kind of experiment: co-IP; Flag-CD47 or Flag-CD47 Y288F transiently transfected in HEK293T/EGFR cells, with or without EGF (100 ng/mL, 1 h) or c-Src CA expression; immunoprecipitation with anti-Flag beads, immunoblot for TRIM21.
In assay [3] the target is WT Flag-CD47 (human) (human) (UniProt Q08722). Described as above.

These are yes or no findings as the source states them, for the method shown. In cells and extracts the contact can be indirect. Some entries that bind do so weakly or less than the wild type.

Regarding “TRIM21 (tripartite motif-containing protein 21), endogenous in U251 cells (from UniProt P19474 1-475) (enzyme)”, the binding entry in assay [1] was “binds”. With “TRIM21, in HEK293T/EGFR cells (from UniProt P19474 1-475) (enzyme)”, the binding result in assay [2] and in assay [3] was “binds” each time.
